Results deposited as PubChem BioAssay AID1508588 (Peter MacCallum Cancer Centre, 2020)
Test: 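Knock-downs boosting vemurafenib effects on melanoma cell growth or lactate release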 (primary screen). Cells: human WM266.4 melanoma cells (BRAF V600 mutant). Knock-down reagent: siRNA pool against human genes, 40 nM. Time to read-out: 96 h from transfection to read-out. Challenge: vemurafenib 300 nM (about IC25), added 48 h after transfection, for 48 h; comparison arm got DMSO vehicle only. Measured: 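Cell gain (DAPI nuclei at end minus before drug, mean of two replicates) and medium lactate by absorbance per cell, both as ratio to non-targeting siRNA, also grouped into fold-change classes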. Scale: cell gain with vemurafenib: higher = more cell gain than with non-targeting siRNA; lactate per cell with vemurafenib: higher = more lactate made per cell. Active means: 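a knock-down counts as enhancing when its fold-change classes with vehicle and with vemurafenib, taken together, show a stronger drug effect on cell gain or lactate per cell; exact class pairs not stated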. Meaning of the calls: active = enhances vemurafenib effect; inactive = no enhancement seen.
In all, the deposit lists about 18,000 reagents; below is a random part of them. In the full data, 790 (4.4%) are marked active. 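Calls rest on a combination of fold-change classes in drug and vehicle arms, not all shown here.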 The numbers tell different reagents against one gene apart.

IMP3 (GeneID 55272) | cell gain with vemurafenib: 0.38; lactate per cell with vemurafenib: 2.67; outcome: inactive
TAL1 (GeneID 6886) | cell gain with vemurafenib: 0.72; lactate per cell with vemurafenib: 1.27; outcome: inactive
GFI1 (GeneID 2672) | cell gain with vemurafenib: 0.98; lactate per cell with vemurafenib: 0.88; outcome: inactive
LINC00452 (GeneID 643365) | cell gain with vemurafenib: 0.81; lactate per cell with vemurafenib: 0.74; outcome: inactive
SLC9A7 (GeneID 84679) | cell gain with vemurafenib: 0.46; lactate per cell with vemurafenib: 0.86; outcome: inactive
DSEL (GeneID 92126) | cell gain with vemurafenib: 0.24; lactate per cell with vemurafenib: 1.04; outcome: inactive
KCNG4 (GeneID 93107) | cell gain with vemurafenib: 1.25; lactate per cell with vemurafenib: 0.62; outcome: inactive
COX6A1 (GeneID 1337) | cell gain with vemurafenib: 0.48; lactate per cell with vemurafenib: 1.38; outcome: inactive
CHST8 (GeneID 64377) | cell gain with vemurafenib: 0.09; lactate per cell with vemurafenib: 1.07; outcome: inactive
RPS17 (GeneID 6218) | cell gain with vemurafenib: 0.03; lactate per cell with vemurafenib: 1.14; outcome: inactive
SIRPG (GeneID 55423) | cell gain with vemurafenib: 0.57; lactate per cell with vemurafenib: 1.8; outcome: inactive
MED21 (GeneID 9412) | cell gain with vemurafenib: 0.17; lactate per cell with vemurafenib: 1.59; outcome: inactive
MYL6B (GeneID 140465) | cell gain with vemurafenib: 0.5; lactate per cell with vemurafenib: 1.6; outcome: inactive
NAT14 (GeneID 57106) | cell gain with vemurafenib: 1.1; lactate per cell with vemurafenib: 0.44; outcome: inactive
TLK1 (GeneID 9874) | cell gain with vemurafenib: 0.57; lactate per cell with vemurafenib: 0.48; outcome: inactive
NR2F2 (GeneID 7026) | cell gain with vemurafenib: 0.62; lactate per cell with vemurafenib: 0.92; outcome: inactive
ATP6V1G3 (GeneID 127124) | cell gain with vemurafenib: 0.88; lactate per cell with vemurafenib: 1.12; outcome: inactive
CYP1B1 (GeneID 1545) | cell gain with vemurafenib: 0.71; lactate per cell with vemurafenib: 1.31; outcome: inactive
DESI1 (GeneID 27351) | cell gain with vemurafenib: 0.62; lactate per cell with vemurafenib: 0.32; outcome: inactive
CHEK1 (GeneID 1111) | cell gain with vemurafenib: 0.25; lactate per cell with vemurafenib: 1.9; outcome: inactive

Targets listed so far whose target name begins with C or c:
COX6A1 (GeneID 1337) | cell gain with vemurafenib: 0.48; lactate per cell with vemurafenib: 1.38; outcome: inactive
CHST8 (GeneID 64377) | cell gain with vemurafenib: 0.09; lactate per cell with vemurafenib: 1.07; outcome: inactive
CYP1B1 (GeneID 1545) | cell gain with vemurafenib: 0.71; lactate per cell with vemurafenib: 1.31; outcome: inactive
CHEK1 (GeneID 1111) | cell gain with vemurafenib: 0.25; lactate per cell with vemurafenib: 1.9; outcome: inactive

The list goes on:
GAD2 (GeneID 2572) | cell gain with vemurafenib: 0.34; lactate per cell with vemurafenib: 0.66; outcome: active
SLC25A52 (GeneID 147407) | cell gain with vemurafenib: 0.02; lactate per cell with vemurafenib: 1.33; outcome: inactive
NACA2 (GeneID 342538) | cell gain with vemurafenib: 1.32; lactate per cell with vemurafenib: 0.88; outcome: inactive
FKBP11 (GeneID 51303) | cell gain with vemurafenib: 0.61; lactate per cell with vemurafenib: 0.4; outcome: inactive
PTN (GeneID 5764) | cell gain with vemurafenib: 0.72; lactate per cell with vemurafenib: 0.82; outcome: inactive
SCN1B (GeneID 6324) | cell gain with vemurafenib: 0.42; lactate per cell with vemurafenib: 1.34; outcome: inactive
KIAA0319L (GeneID 79932) | cell gain with vemurafenib: 0.47; lactate per cell with vemurafenib: 0.9; outcome: inactive
CBFA2T2 (GeneID 9139) | cell gain with vemurafenib: 1.28; lactate per cell with vemurafenib: 0.6; outcome: inactive
NDUFS5 (GeneID 4725) | cell gain with vemurafenib: 1.05; lactate per cell with vemurafenib: 1.34; outcome: inactive
PLCB3 (GeneID 5331) | cell gain with vemurafenib: 0.27; lactate per cell with vemurafenib: 0.66; outcome: inactive
FBXO2 (GeneID 26232) | cell gain with vemurafenib: 0.22; lactate per cell with vemurafenib: 1.59; outcome: inactive
NUDCD3 (GeneID 23386) | cell gain with vemurafenib: 0.62; lactate per cell with vemurafenib: 0.52; outcome: inactive
MLH3 (GeneID 27030) | cell gain with vemurafenib: 1.01; lactate per cell with vemurafenib: 1.06; outcome: inactive
FSIP1 (GeneID 161835) | cell gain with vemurafenib: 0.79; lactate per cell with vemurafenib: 0.48; outcome: active
ZNF826P (GeneID 664701) | cell gain with vemurafenib: 0.25; lactate per cell with vemurafenib: 1.35; outcome: inactive
KCNMB2 (GeneID 10242) | cell gain with vemurafenib: 0.44; lactate per cell with vemurafenib: 0.64; outcome: inactive
SAMD10 (GeneID 140700) | cell gain with vemurafenib: 0.65; lactate per cell with vemurafenib: 0.8; outcome: inactive
PPP2R5C (GeneID 5527) | cell gain with vemurafenib: 0.73; lactate per cell with vemurafenib: 1.17; outcome: inactive
MSS51 (GeneID 118490) | cell gain with vemurafenib: 0.62; lactate per cell with vemurafenib: 0.94; outcome: inactive
KRT20 (GeneID 54474) | cell gain with vemurafenib: 0.3; lactate per cell with vemurafenib: 1.66; outcome: inactive
ZNF683 (GeneID 257101) | cell gain with vemurafenib: 0.65; lactate per cell with vemurafenib: 0.82; outcome: inactive
ZNF117 (GeneID 51351) | cell gain with vemurafenib: 0.09; lactate per cell with vemurafenib: 1; outcome: inactive
GNB3 (GeneID 2784) | cell gain with vemurafenib: 0.26; lactate per cell with vemurafenib: 1.73; outcome: inactive
DCDC1 (GeneID 341019) #1 | cell gain with vemurafenib: 0.65; lactate per cell with vemurafenib: 1.29; outcome: inactive
DCDC1 (GeneID 341019) #2 | cell gain with vemurafenib: 0.74; lactate per cell with vemurafenib: 1.22; outcome: inactive
ACSM6 (GeneID 142827) | cell gain with vemurafenib: 0.98; lactate per cell with vemurafenib: 1.39; outcome: inactive
THBS3 (GeneID 7059) | cell gain with vemurafenib: 0.66; lactate per cell with vemurafenib: 1.01; outcome: inactive
BNC2 (GeneID 54796) | cell gain with vemurafenib: 0.44; lactate per cell with vemurafenib: 1.5; outcome: inactive
CA11 (GeneID 770) | cell gain with vemurafenib: 1.16; lactate per cell with vemurafenib: 1.02; outcome: inactive
TRAF7 (GeneID 84231) | cell gain with vemurafenib: 0.66; lactate per cell with vemurafenib: 0.44; outcome: inactive
ADGRL2 (GeneID 23266) | cell gain with vemurafenib: 0.15; lactate per cell with vemurafenib: 2.47; outcome: inactive
CDC25C (GeneID 995) | cell gain with vemurafenib: 0.3; lactate per cell with vemurafenib: 1.47; outcome: inactive
